test system: rat oligodendrocyte progenitor cells; assay: Promotive activity of rat oligodendrocyte progenitor cell differentiation-2 (immunostaining of MBP); assay type: cell-based; settings: Test 3; vitamin D derivative 2 μM, T3 30 nM
Procedure: The promotive activity of oligodendrocyte progenitor cell (OPC) differentiation of the vitamin D derivatives was evaluated by immunostaining of MBP.
Subsequently, oligodendrocyte progenitor cell separation medium was added to the flask, and the mixture was similarly shaken for about 22 hours (37° C., 200 rpm), and the supernatant was collected to prepare oligodendrocyte progenitor cells.

**Q.** `C=C1/C(=C\C=C2/CCC[C@]3(C)[C@@H]([C@H](C)CN4CCOC[C@@H]4C)CC[C@@H]23)C[C@@H](O)C[C@@H]1O` [Compound F004, (1R,3S,Z)-5-(2-((1R,3aS,7aR,E)-7a-methyl-1-((S)-1-((S)-3-methylmorpholino)propan-2-yl)octahydro-4H-inden-4-ylidene)ethylidene)-4-methylenecyclohexane-1,3-diol] was tested. Which “Significant difference (t-test vs DMSO group)” value (shortened to “Significant difference”) did it give?
**A.** The value was “**** (<0.0001)”.

**Q.** With `C=C1/C(=C\C=C2/CCC[C@]3(C)[C@@H]([C@H](C)CN4CCOC[C@H]4C)CC[C@@H]23)C[C@@H](O)C[C@@H]1O` [Compound F005, (1R,3S,Z)-5-(2-((1R,3aS,7aR,E)-7a-methyl-1-((S)-1-((R)-3-methylmorpholino)propan-2-yl)octahydro-4H-inden-4-ylidene)ethylidene)-4-methylenecyclohexane-1,3-diol] as the compound, how does the “Significant difference” value read?
**A.** Its value is “**** (<0.0001)”.

**Q.** For `C[C@H](CN1CCCC[C@@H]1C)[C@H]1CC[C@H]2/C(=C/C=C3C[C@@H](O)C[C@H](O)C3)CCC[C@]12C` [Compound G001, (1R,3R)-5-(2-((1R,3aS,7aR,E)-7a-methyl-1-((S)-1-((S)-2-methylpiperidin-1-yl)propan-2-yl)octahydro-4H-inden-4-ylidene)ethylidene)cyclohexane-1,3-diol], which “Significant difference” value is on record?
**A.** Its value is “**** (<0.0001)”.

**Q.** How did the “Significant difference” value turn out when `C[C@H](CN1CCCC[C@H]1C)[C@H]1CC[C@H]2/C(=C/C=C3C[C@@H](O)C[C@H](O)C3)CCC[C@]12C` [Compound G002, (1R,3R)-5-(2-((1R,3aS,7aR,E)-7a-methyl-1-((S)-1-((R)-2-methylpiperidin-1-yl)propan-2-yl)octahydro-4H-inden-4-ylidene)ethylidene)cyclohexane-1,3-diol] was run?
**A.** Its value is “**** (<0.0001)”.

**Q.** `C[C@H](CN1CCCCC1(C)C)[C@H]1CC[C@H]2/C(=C/C=C3C[C@@H](O)C[C@H](O)C3)CCC[C@]12C` [Compound G003, (1R,3R)-5-(2-((1R,3aS,7aR,E)-1-((S)-1-(2,2-dimethylpiperidin-1-yl)propan-2-yl)-7a-methyloctahydro-4H-inden-4-ylidene)ethylidene)cyclohexane-1,3-diol] was tested. Which “Significant difference” value did it give?
**A.** Its value is “**** (<0.0001)”.

**Q.** `C[C@H](CN1CCOC[C@@H]1C)[C@H]1CC[C@H]2/C(=C/C=C3C[C@@H](O)C[C@H](O)C3)CCC[C@]12C` [Compound G004, (1R,3R)-5-(2-((1R,3aS,7aR,E)-7a-methyl-1-((S)-1-((S)-3-methylmorpholino)propan-2-yl)octahydro-4H-inden-4-ylidene)ethylidene)cyclohexane-1,3-diol] was tested. Which “Significant difference” value did it give?
**A.** Its value is “**** (<0.0001)”.

**Q.** Which “Significant difference” value does the source give for `C[C@H](CN1CCOC[C@H]1C)[C@H]1CC[C@H]2/C(=C/C=C3C[C@@H](O)C[C@H](O)C3)CCC[C@]12C` [Compound G005, (1R,3R)-5-(2-((1R,3aS,7aR,E)-7a-methyl-1-((S)-1-((R)-3-methylmorpholino)propan-2-yl)octahydro-4H-inden-4-ylidene)ethylidene)cyclohexane-1,3-diol] here?
**A.** Its value is “**** (<0.0001)”.

same assay, conditions: Test 4; vitamin D derivative 2 μM, T3 30 nM

**Q.** `C=C1/C(=C\C=C2/CCC[C@]3(C)[C@@H]([C@H](C)CN4CCOCC4(C)C)CC[C@@H]23)C[C@@H](O)C[C@@H]1O` [Compound F006, (1R,3S,Z)-5-(2-((1R,3aS,7aR,E)-1-((S)-1-(3,3-dimethylmorpholino)propan-2-yl)-7a-methyloctahydro-4H-inden-4-ylidene)ethylidene)-4-methylenecyclohexane-1,3-diol] was tested. Which “Significant difference” value did it give?
**A.** The value was “**** (<0.0001)”.

**Q.** `C[C@H](CN1CCOCC1(C)C)[C@H]1CC[C@H]2/C(=C/C=C3C[C@@H](O)C[C@H](O)C3)CCC[C@]12C` [Compound G006, (1R,3R)-5-(2-((1R,3aS,7aR,E)-1-((S)-1-(3,3-dimethylmorpholino)propan-2-yl)-7a-methyloctahydro-4H-inden-4-ylidene)ethylidene)cyclohexane-1,3-diol] was tested. Which “Significant difference” value did it give?
**A.** The value was “**** (<0.0001)”.

**Q.** Which “Significant difference” value does the source give for `C[C@H](CN1CCOCC12CC2)[C@H]1CC[C@H]2/C(=C/C=C3C[C@@H](O)C[C@H](O)C3)CCC[C@]12C` [Compound G007, (1R,3R)-5-(2-((1R,3aS,7aR,E)-1-((S)-1-(7-oxa-4-azaspiro[2.5]octan-4-yl)propan-2-yl)-7a-methyloctahydro-4H-inden-4-ylidene)ethylidene)cyclohexane-1,3-diol] here?
**A.** Its value is “**** (<0.0001)”.

same assay, conditions: Test 5; vitamin D derivative 2 μM, T3 30 nM

**Q.** `C=C1/C(=C\C=C2/CCC[C@]3(C)[C@@H]([C@H](C)CN4CCOC[C@@H]4C4CC4)CC[C@@H]23)C[C@@H](O)C[C@@H]1O` [Compound F008, (1R,3 S,Z)-5-(2-((1R,3aS,7aR,E)-1-((S)-1-((S)-3-cyclopropylmorpholino)propan-2-yl)-7a-methyloctahydro-4H-inden-4-ylidene)ethylidene)-4-methylenecyclohexane-1,3-diol] was tested. Which “Significant difference” value did it give?
**A.** Its value is “**** (<0.0001)”.

**Q.** `C=C1/C(=C\C=C2/CCC[C@]3(C)[C@@H]([C@H](C)CN4CCN(C)C[C@@H]4C)CC[C@@H]23)C[C@@H](O)C[C@@H]1O` [Compound F011, (1R,3S,Z)-5-(2-((1R,3aS,7aR,E)-1-((S)-1-((S)-2,4-dimethylpiperazin-1-yl)propan-2-yl)-7a-methyloctahydro-4H-inden-4-ylidene)ethylidene)-4-methylenecyclohexane-1,3-diol] was tested. Which “Significant difference” value did it give?
**A.** Its value is “*** (<0.001)”.

**Q.** Which “Significant difference” value does the source give for `C[C@H](CN1CCOC[C@@H]1C1CC1)[C@H]1CC[C@H]2/C(=C/C=C3C[C@@H](O)C[C@H](O)C3)CCC[C@]12C` [Compound G008, (1R,3R)-5-(2-((1R,3aS,7aR,E)-1-((S)-1-((S)-3-cyclopropylmorpholino)propan-2-yl)-7a-methyloctahydro-4H-inden-4-ylidene)ethylidene)cyclohexane-1,3-diol] here?
**A.** Its value is “**** (<0.0001)”.

**Q.** For `C[C@H](CN1CCN(C)C[C@@H]1C)[C@H]1CC[C@H]2/C(=C/C=C3C[C@@H](O)C[C@H](O)C3)CCC[C@]12C` [Compound G011, (1R,3R)-5-(2-((1R,3aS,7aR,E)-1-((S)-1-((S)-2,4-dimethylpiperazin-1-yl)propan-2-yl)-7a-methyloctahydro-4H-inden-4-ylidene)ethylidene)cyclohexane-1,3-diol], which “Significant difference” value is on record?
**A.** The value was “** (<0.01)”.

**Q.** With `C[C@H](CN1CCN(C)C[C@H]1C)[C@H]1CC[C@H]2/C(=C/C=C3C[C@@H](O)C[C@H](O)C3)CCC[C@]12C` [Compound G012, (1R,3R)-5-(2-((1R,3aS,7aR,E)-1-((S)-1-((R)-2,4-dimethylpiperazin-1-yl)propan-2-yl)-7a-methyloctahydro-4H-inden-4-ylidene)ethylidene)cyclohexane-1,3-diol] as the compound, how does the “Significant difference” value read?
**A.** Its value is “* (<0.05)”.

same assay, conditions: Test 7; vitamin D derivative 2 μM, T3 30 nM

**Q.** Which “Significant difference” value does the source give for `C=C1/C(=C\C=C2/CCC[C@]3(C)[C@@H]([C@H](C)CN4CCCC[C@H]4C)CC[C@@H]23)C[C@@H](O)C[C@@H]1O` [Compound F002, (1R,3S,Z)-5-(2-((1R,3aS,7aR,E)-7a-methyl-1-((S)-1-((R)-2-methylpiperidin-1-yl)propan-2-yl)octahydro-4H-inden-4-ylidene)ethylidene)-4-methylenecyclohexane-1,3-diol] here?
**A.** Its value is “** (<0.01)”.

**Q.** For `C=C1/C(=C\C=C2/CCC[C@]3(C)[C@@H]([C@H](C)CN4CCCCC4(C)C)CC[C@@H]23)C[C@@H](O)C[C@@H]1O` [Compound F003, (1R,3S,Z)-5-(2-((1R,3aS,7aR,E)-1-((S)-1-(2,2-dimethylpiperidin-1-yl)propan-2-yl)-7a-methyloctahydro-4H-inden-4-ylidene)ethylidene)-4-methylenecyclohexane-1,3-diol], which “Significant difference” value is on record?
**A.** Its value is “** (<0.01)”.

same assay, conditions: Test 8; vitamin D derivative 2 μM, T3 30 nM

**Q.** For `C=C1/C(=C\C=C2/CCC[C@]3(C)[C@@H]([C@H](C)CN4CCC[C@H]4C(C)(C)O)CC[C@@H]23)C[C@@H](O)C[C@@H]1O` [Compound F014, (1R,3S,Z)-5-(2-((1R,3aS,7aR,E)-1-((S)-1-((S)-2-(2-hydroxypropan-2-yl)pyrrolidin-1-yl)propan-2-yl)-7a-methyloctahydro-4H-inden-4-ylidene)ethylidene)-4-methylenecyclohexane-1,3-diol], which “Significant difference” value is on record?
**A.** The value was “*** (<0.001)”.

**Q.** Which “Significant difference” value does the source give for `C=C1/C(=C\C=C2/CCC[C@]3(C)[C@@H]([C@H](C)CN4CCC[C@@H]4C(C)(C)OC)CC[C@@H]23)C[C@@H](O)C[C@@H]1O` [Compound F015, (1R,3S,Z)-5-(2-((1R,3aS,7aR,E)-1-((S)-1-((R)-2-(2-methoxypropan-2-yl)pyrrolidin-1-yl)propan-2-yl)-7a-methyloctahydro-4H-inden-4-ylidene)ethylidene)-4-methylenecyclohexane-1,3-diol] here?
**A.** Its value is “*** (<0.001)”.

**Q.** With `C=C1/C(=C\C=C2/CCC[C@]3(C)[C@@H]([C@H](C)CN4CCC[C@H]4C(C)(C)OC)CC[C@@H]23)C[C@@H](O)C[C@@H]1O` [Compound F016, (1R,3S,Z)-5-(2-((1R,3aS,7aR,E)-1-((S)-1-((S)-2-(2-methoxypropan-2-yl)pyrrolidin-1-yl)propan-2-yl)-7a-methyloctahydro-4H-inden-4-ylidene)ethylidene)-4-methylenecyclohexane-1,3-diol] as the compound, how does the “Significant difference” value read?
**A.** The value was “*** (<0.001)”.

same assay, conditions: Test 9; vitamin D derivative 2 μM, T3 30 nM

**Q.** With `C=C1/C(=C\C=C2/CCC[C@]3(C)[C@@H]([C@H](C)CN4CCC[C@@H]4C(C)(C)O)CC[C@@H]23)C[C@@H](O)C[C@@H]1O` [Compound F013, (1R,3S,Z)-5-(2-((1R,3aS,7aR,E)-1-((S)-1-((R)-2-(2-hydroxypropan-2-yl)pyrrolidin-1-yl)propan-2-yl)-7a-methyloctahydro-4H-inden-4-ylidene)ethylidene)-4-methylenecyclohexane-1,3-diol] as the compound, how does the “Significant difference” value read?
**A.** The value was “**** (<0.0001)”.

Source: patent publication US20230348376A1 (TEIJIN PHARMA LIMITED, priority 2020, published 2023)
